Measurements taken from paper PMC8952208, “Synthesis, Antiplasmodial, and Antileukemia Activity of Dihydroartemisinin–HDAC Inhibitor Hybrids as Multitarget Drugs” (Pharmaceuticals, 2022).

How the values were obtained:
P. falciparum Dd2 = format: cell-based; settings: Selectivity Index = (A2780 IC50)/(P. falciparum IC50)
P. falciparum 3D7 = format: cell-based; settings: Selectivity Index = (A2780 IC50)/(P. falciparum IC50)
Method: [38, 39] […] After three days of incubation at 37 °C, 5% CO2 and 5% O2 plates were frozen until analyzed by HRP2-ELISA. All compounds were evaluated in duplicate in at least two independent experiments. The IC50 was determined by nonlinear regression analysis of log concentration-response curves using the drc-package v3.0.1 [40] of R v4.0.5..

Row | Compound | SI A2780/Pf Dd2 (P. falciparum Dd2) | SI A2780/Pf 3D7 (P. falciparum 3D7)
1 | C[C@H]1[C@@H](SCc2ccc(C(=O)NO)cc2)O[C@@H]2O[C@@]3(C)CC[C@H]4[C@H](C)CC[C@@H]1[C@@]24OO3 [(α)-7c, N-Hydroxy-4-((((3R,5aS,6R,8aS,9R,10R,12S,12aR)-3,6,9-trimethyldecahydro-12H-3,12-epoxy[1,2]dioxepino[4,3-i]isochromen-10-yl)thio)methyl)benzamide] | 324 | 333
2 | C[C@H]1[C@@H](Sc2ccc(CC(=O)NO)cc2)O[C@@H]2O[C@@]3(C)CC[C@H]4[C@H](C)CC[C@@H]1[C@@]24OO3 [(α)-7e, N-Hydroxy-2-(4-(((3R,5aS,6R,8aS,9R,10R,12S,12aR)-3,6,9-trimethyldecahydro-12H-3,12-epoxy[1,2]dioxepino[4,3-i]isochromen-10-yl)thio)phenyl)acetamide] | 1017 | 590
3 | C[C@H]1[C@H](SCc2ccc(C(=O)NO)cc2)O[C@@H]2O[C@@]3(C)CC[C@H]4[C@H](C)CC[C@@H]1[C@@]24OO3 [(β)-7c, N-Hydroxy-4-((((3R,5aS,6R,8aS,9R,10S,12S,12aR)-3,6,9-trimethyldecahydro-12H-3,12-epoxy[1,2]dioxepino[4,3-i]isochromen-10-yl)thio)methyl)benzamide] | 275 | 244
4 | C[C@H]1[C@H](Sc2ccc(CC(=O)NO)cc2)O[C@@H]2O[C@@]3(C)CC[C@H]4[C@H](C)CC[C@@H]1[C@@]24OO3 [(β)-7e, N-Hydroxy-2-(4-(((3R,5aS,6R,8aS,9R,10S,12S,12aR)-3,6,9-trimethyldecahydro-12H-3,12-epoxy[1,2]dioxepino[4,3-i]isochromen-10-yl)thio)phenyl)acetamide] | 1306 | 804
5 | C[C@@H]1CC[C@H]2[C@@H](C)C(OCc3ccc(/C=C/C(=O)O)cc3)O[C@@H]3O[C@@]4(C)CC[C@@H]1[C@]32OO4 (stereo partly drawn) [Compound 6a, (E)-3-(4-((((3R,5aS,6R,8aS,9R,12R,12aR)-3,6,9-Trimethyldecahydro-12H-3,12-epoxy[1,2]dioxepino[4,3-i]isochromen-10-yl)oxy)methyl)phenyl)acrylic acid] | 583 | 573
6 | C[C@@H]1CC[C@H]2[C@@H](C)C(OCc3ccc(/C=C/C(=O)NO)cc3)O[C@@H]3O[C@@]4(C)CC[C@@H]1[C@]32OO4 (stereo partly drawn) [Compound 7a, (E)-N-Hydroxy-3-(4-((((3R,5aS,6R,8aS,9R,12R,12aR)-3,6,9-trimethyldecahydro-12H-3,12-epoxy[1,2]dioxepino[4,3-i]isochromen-10-yl)oxy)methyl)phenyl)acrylamide] | 1147 | 750
7 | C[C@@H]1CC[C@H]2[C@@H](C)C(SCCCCCC(=O)NO)O[C@@H]3O[C@@]4(C)CC[C@@H]1[C@]32OO4 (stereo partly drawn) [Compound 7b, N-Hydroxy-6-(((3R,5aS,6R,8aS,9R,12S,12aR)-3,6,9-trimethyldecahydro-12H-3,12-epoxy[1,2]dioxepino[4,3-i]isochromen-10-yl)thio)hexanamide] | 230 | 292
8 | C[C@H]1[C@H](OCc2ccc(C(=O)NO)cc2)O[C@@H]2O[C@@]3(C)CC[C@H]4[C@H](C)CC[C@@H]1[C@@]24OO3 [Compound 7d, N-Hydroxy-4-((((3R,5aS,6R,8aS,9R,10R,12R,12aR)-3,6,9-trimethyldecahydro-12H-3,12-epoxy[1,2]dioxepino[4,3-i]isochromen-10-yl)oxy)methyl)benzamide] | 655 | 468
9 | C[C@@H]1CC[C@H]2[C@@H](C)C(OCc3ccc(/C=C/C(=O)Nc4ccccc4N)cc3)O[C@@H]3O[C@@]4(C)CC[C@@H]1[C@]32OO4 (stereo partly drawn) [Compound 8, (E)-N-(2-Aminophenyl)-3-(4-((((3R,5aS,6R,8aS,9R,12R,12aR)-3,6,9-trimethyldecahydro-12H-3,12-epoxy[1,2]dioxepino[4,3-i]isochromen-10-yl)oxy)methyl)phenyl)acrylamide] | 588 | 588
10 | C[C@H]1[C@@H](O)O[C@@H]2O[C@@]3(C)CC[C@H]4[C@H](C)CC[C@@H]1[C@@]24OO3 [DHA, dihydroartemisinin] | 539 | 323
